Reference: article PMC8894474
Results are given in words; binding and its absence hold for the method and conditions named. Binding seen in cells or lysates may run through a third protein. Binding can be weak; no strength is given. Tags and fused reporters may be left off the sequences shown.

Target: GFP-epitope tagged BIN1V9 (non-neuronal isoform of Bridging integrator 1)
Assay: co-IP; cells expressing BIN1V1GFP or BIN1V9GFP without or with RIN3flag; immunoprecipitation with anti-GFP antibody, immunoblot with anti-BIN1 and anti-RIN3

binding: binds
B1: flag-epitope tagged RIN3 (Ras and Rab interactor 3) (protein, UniProt Q8TB24 1-985)
chain: MIRHAGAPARGDPTGPVPVVGKGEEEEEEDGMRLCLPANPKNCLPHRRGISILEKLIKTCPVWLQLSLGQAEVARILHRVVAGMFLVRRDSSSKQLVLCVHFPSLNESSAEVLEYTIKEEKSILYLEGSALVFEDIFRLIAFYCVSRDLLPFTLRLPQAILEASSFTDLETIANLGLGFWDSSLNPPQERGKPAEPPRDRAPGFPLVSSLRPTAHDANCACEIELSVGNDRLWFVNPIFIEDCSSALPTDQPPLGNCPARPLPPTSDATSPTSRWAPRRPPPPPPVLPLQPCSPAQPPVLPALAPAPACPLPTSPPVPAPHVTPHAPGPPDHPNQPPMMTCERLPCPTAGLGPLREEAMKPGAASSPLQQVPAPPLPAKKNLPTAPPRRRVSERVSLEDQSPGMAAEGDQLSLPPQGTSDGPEDTPRESTEQGQDTEVKASDPHSMPELPRTAKQPPVPPPRKKRISRQLASTLPAPLENAELCTQAMALETPTPGPPREGQSPASQAGTQHPPAQATAHSQSSPEFKGSLASLSDSLGVSVMATDQDSYSTSSTEEELEQFSSPSVKKKPSMILGKARHRLSFASFSSMFHAFLSNNRKLYKKVVELAQDKGSYFGSLVQDYKVYSLEMMARQTSSTEMLQEIRTMMTQLKSYLLQSTELKALVDPALHSEEELEAIVESALYKCVLKPLKEAINSCLHQIHSKDGSLQQLKENQLVILATTTTDLGVTTSVPEVPMMEKILQKFTSMHKAYSPEKKISILLKTCKLIYDSMALGNPGKPYGADDFLPVLMYVLARSNLTEMLLNVEYMMELMDPALQLGEGSYYLTTTYGALEHIKSYDKITVTRQLSVEVQDSIHRWERRRTLNKARASRSSVQDFICVSYLEPEQQARTLASRADTQAQALCAQCAEKFAVERPQAHRLFVLVDGRCFQLADDALPHCIKGYLLRSEPKRDFHFVYRPLDGGGGGGGGSPPCLVVREPNFL
